Consider 1 substance from article PMC6838061.

The chains behind the UniProt entries cited, without tags or fusion partners.
UniProt Q13547: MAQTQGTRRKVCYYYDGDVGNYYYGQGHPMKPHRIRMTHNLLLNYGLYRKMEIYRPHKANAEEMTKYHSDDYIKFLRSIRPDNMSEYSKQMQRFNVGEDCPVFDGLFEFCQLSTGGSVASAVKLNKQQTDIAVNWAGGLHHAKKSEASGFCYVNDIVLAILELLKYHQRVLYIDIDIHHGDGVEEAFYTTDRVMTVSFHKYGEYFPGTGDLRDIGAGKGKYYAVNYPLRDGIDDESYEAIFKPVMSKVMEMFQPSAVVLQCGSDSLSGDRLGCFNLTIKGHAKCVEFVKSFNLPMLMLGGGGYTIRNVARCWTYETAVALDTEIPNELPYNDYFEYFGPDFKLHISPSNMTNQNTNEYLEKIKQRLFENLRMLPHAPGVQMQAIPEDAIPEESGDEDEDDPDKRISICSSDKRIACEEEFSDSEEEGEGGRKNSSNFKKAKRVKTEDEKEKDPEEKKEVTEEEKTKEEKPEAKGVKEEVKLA

This experiment addresses T1, Dishevelled-1 (DVL-1) (human (endogenous in MDA-MB-231 and MDA-MB-468)) (UniProt O14640).
T1 sequence: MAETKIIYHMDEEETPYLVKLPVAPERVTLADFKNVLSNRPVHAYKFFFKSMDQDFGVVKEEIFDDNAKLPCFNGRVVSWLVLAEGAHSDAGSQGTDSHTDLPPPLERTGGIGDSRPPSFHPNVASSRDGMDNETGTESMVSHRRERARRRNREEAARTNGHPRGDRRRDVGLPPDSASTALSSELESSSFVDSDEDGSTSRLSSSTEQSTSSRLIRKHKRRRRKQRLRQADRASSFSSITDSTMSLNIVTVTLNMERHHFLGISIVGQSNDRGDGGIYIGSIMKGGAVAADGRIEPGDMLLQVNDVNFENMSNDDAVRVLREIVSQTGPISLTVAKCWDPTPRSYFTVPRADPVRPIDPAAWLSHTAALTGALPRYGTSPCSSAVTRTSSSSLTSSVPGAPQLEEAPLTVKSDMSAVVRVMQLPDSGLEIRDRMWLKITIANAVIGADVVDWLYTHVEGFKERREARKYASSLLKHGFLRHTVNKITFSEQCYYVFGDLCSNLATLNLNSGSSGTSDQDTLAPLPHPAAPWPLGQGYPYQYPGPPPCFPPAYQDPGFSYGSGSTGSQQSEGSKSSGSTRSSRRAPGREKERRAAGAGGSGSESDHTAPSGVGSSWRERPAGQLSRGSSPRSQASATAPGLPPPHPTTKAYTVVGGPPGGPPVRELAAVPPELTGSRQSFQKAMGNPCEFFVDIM
In words: co-IP; endogenous DVL-1 precipitated from MDA-MB-231 and MDA-MB-468 cell extracts with 2 ug DVL-1 antibody (D3570; Sigma), 2 hrs/4 °C, Protein A Dynabeads; NP-40 lysis buffer; species-matched IgG as negative control; Western blotting for SIRT-1 and HDAC1.

Results are given in words; binding and its absence hold for the method and conditions named. Binding seen in cells or lysates may run through a third protein. Some results given as binding are weak or reduced against the parent protein; the word gives no strength.

With “HDAC1 (from UniProt Q13547 1-482) (enzyme)”, the binding result is given as “binds”.
